Measurements: PubChem BioAssay AID540275 (National Center for Advancing Translational Sciences (NCATS), 2011)
The whole screen tested about 320,000 compounds, of which about 620 (0.19%) were called active. The inconclusive results got no clear call from the source; some entries with a clear call stand among them for comparison. Cut-off read from the data, not from the text of the source: active = activation above about 80%; inconclusive = between about 30% and that limit; inactive = weaker than that.

Amino acid sequences for entries named in this document (tags omitted).
UniProt Q8NER1, whole entry, looked up: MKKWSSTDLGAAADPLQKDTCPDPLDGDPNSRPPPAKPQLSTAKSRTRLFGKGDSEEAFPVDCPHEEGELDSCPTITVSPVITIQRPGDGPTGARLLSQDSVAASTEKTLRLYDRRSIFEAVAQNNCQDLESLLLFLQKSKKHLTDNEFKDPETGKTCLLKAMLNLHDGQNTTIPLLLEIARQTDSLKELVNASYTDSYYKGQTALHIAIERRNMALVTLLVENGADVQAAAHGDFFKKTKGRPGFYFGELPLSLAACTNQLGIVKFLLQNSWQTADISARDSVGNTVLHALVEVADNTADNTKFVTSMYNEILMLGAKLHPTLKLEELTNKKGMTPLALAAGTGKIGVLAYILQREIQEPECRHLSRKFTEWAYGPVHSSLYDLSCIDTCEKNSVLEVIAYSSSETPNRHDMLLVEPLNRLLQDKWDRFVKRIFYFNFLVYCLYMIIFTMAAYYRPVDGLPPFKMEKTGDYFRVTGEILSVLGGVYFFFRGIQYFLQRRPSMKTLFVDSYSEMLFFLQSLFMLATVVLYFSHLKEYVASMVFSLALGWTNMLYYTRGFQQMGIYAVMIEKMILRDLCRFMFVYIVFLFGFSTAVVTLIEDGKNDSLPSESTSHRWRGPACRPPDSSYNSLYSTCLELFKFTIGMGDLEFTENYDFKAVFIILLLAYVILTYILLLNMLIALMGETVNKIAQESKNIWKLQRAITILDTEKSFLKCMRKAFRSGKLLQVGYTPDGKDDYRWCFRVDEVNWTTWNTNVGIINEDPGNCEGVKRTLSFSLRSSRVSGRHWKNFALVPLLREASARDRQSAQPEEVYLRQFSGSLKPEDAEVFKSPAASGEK

Each compound was assayed against Transient receptor potential cation channel subfamily V member 1 (Homo sapiens) (UniProt Q8NER1) (assay: HTS Assay for Compounds that Act as Agonists of the Vanilloid Receptor 1). Settings: TRPV1-expressing cells, Fluo-8 calcium influx, agonist mode; at 8.33 µM, stronger effect = higher value.
Procedure, shortened: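 Cells expressing TRPV1 were dye-loaded with Fluo-8 and read kinetically: 10 s baseline, 3 min after compound (agonist portion), then 2 min after EC20 capsaicin (allosteric enhancer portion). Calcium-bound dye fluorescence at 480/520 nm.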
Note: 0% is about no effect.

Structure (SMILES)	activation
Nc1ccc(-c2nc3ccc(-c4nc5ccccc5o4)cc3[nH]2)cc1	inconclusive: 41.9%
COc1ccc(C(=O)NC2(C(F)(F)F)C(=O)Nc3c2c(=O)[nH]c(=O)n3CCc2ccc(OC)c(OC)c2)cc1 (stereo unspecified)	inactive: -0.595%
O=C(Cc1ccccc1)NC(Nc1cccc2ccccc12)C(Cl)(Cl)Cl (stereo unspecified)	inconclusive: 42.4%
CCOc1ccc(-n2nc3ccc(NC(=O)c4ccc5c(c4)OCCO5)cc3n2)cc1	inactive: -1.49%
COC(=O)c1c(NC(=O)CSc2nc3nc(C)cc(C)n3n2)sc(C)c1C	inactive: -2.1%
C/C(=C1/SC(N2CC(C)OC(C)C2)=NC1=O)c1ccccc1 (stereo unspecified)	inconclusive: 64%
COc1ccc(NC(=O)c2ccc3c(c2)OCO3)cc1Cl	inconclusive: 74.9%
O=C(/C=C/c1ccccc1)NCCc1ccccc1	inconclusive: 31.3%
N#Cc1ccc(/C=C/C(=O)c2ccccc2)cc1	inconclusive: 49.6%
CCc1ccc2nc(SCC(=O)Nc3nnc(C)s3)c(C)cc2c1	inactive: 0.732%
Cc1ccc(NC(=O)NCCCN2CCCC2=O)cc1Cl	inactive: 0.269%
COc1nc(N/N=C/c2ccc(C)cc2)nc(N2CCCCC2)n1	inconclusive: 45.5%
COC(=O)c1ccccc1NC(=O)NC1CCN(Cc2ccccc2)CC1	inactive: 10.6%
CCOC(=O)CC1C(=O)NCCN1Cc1cccc(OC)c1 (stereo unspecified)	inactive: 1.53%
CCN1c2ccccc2-c2nc3ccccc3n2C1c1cccs1 (stereo unspecified)	inconclusive: 32.4%
Cc1cccc(C(=O)NCCc2ccccc2)c1	inconclusive: 67.4%
COC(C(=O)Nc1ccnn1C1CCN(Cc2ccc(Cl)s2)CC1)c1ccccc1 (stereo unspecified)	inconclusive: 30.9%
Cc1cc(C)c(C)c(OCC(=O)N2CCOCC2)c1	inconclusive: 44.5%
O=C(Cc1ccccc1)Nc1nc(-c2cccs2)cs1	active: 93.7%
O=C(CN(c1ccccc1)S(=O)(=O)c1ccc(Cl)cc1)Nc1cccnc1	inconclusive: 34.9%
C=C(C)CNC(=S)NNC(=O)CCn1c2ccc(Cl)cc2c2cc(Cl)ccc21	inactive: 6.1%
Cc1ccccc1C(=O)N1CCC(C(=O)N2CCCc3ccccc32)CC1	inactive: -0.61%
O=C(c1ccccn1)c1cc2ccccc2n1S(=O)(=O)c1ccccc1	inconclusive: 31.5%
O=C(CN(Cc1ccco1)C(=O)CNS(=O)(=O)c1ccc(Cl)cc1)NCc1ccco1	inactive: -1.02%
CCN(CC)c1ccc2cc(C(N)=O)/c(=N\NC(=O)c3ccncc3)oc2c1	inconclusive: 48.3%
COc1ccc(C2Nc3ccccc3C(=O)N2c2ccc(C)cc2)cc1Cn1cc([N+](=O)[O-])cn1 (stereo unspecified)	inactive: -3.84%

Looked up by compound from the entries so far (two):
Structure (SMILES)	activation
CCOc1ccc(-n2nc3ccc(NC(=O)c4ccc5c(c4)OCCO5)cc3n2)cc1	inactive: -1.49%
CCN(CC)c1ccc2cc(C(N)=O)/c(=N\NC(=O)c3ccncc3)oc2c1	inconclusive: 48.3%
